In patent US20210106679A1 (UNIVERSITÄT WIEN, priority 2017, published 2021):

Tests used:
[1] = TEM imaging of peptides and peptide-silica mixtures; format: physicochemical; conditions: absence of silicic acid
Experimental: Peptide and peptide-silica mixtures suspended in 50 mM phosphate buffer were applied onto carbon coated copper grid and subsequently viewed with Philips CM200 electron microscope operated at 200 kV.

[2] = peptide synthesis; conditions: whole synthesis

**Q.** With rriil(εK)RRIL [Peptide 8] as the substance, how does the “structures of the peptide in phosphate buffer (TEM)” value [1] read?
**A.** Its value is “micrometre long rods or narrow sheets”.

**Q.** With RRIIL[εLys]RRIL as the substance, how does the isolated yield ([2]; on 13 μmol peptidyl resin) read?
**A.** The isolated yield was 25% yield.

**Q.** And the isolated mass ([2]; scale 13 μmol of peptidyl resin)?
**A.** The isolated mass was 17 mg.

**Q.** For RRIL[εLys]RRIL, which isolated yield ([2]; on 11 μmol peptidyl resin) is on record?
**A.** Its isolated yield is 23% yield.

**Q.** And the isolated mass ([2]; scale 11 μmol of peptidyl resin)?
**A.** Its isolated mass is 14 mg.

**Q.** With RRILKRRIL [Peptide 1] as the substance, how does the “structures of the peptide in phosphate buffer (TEM)” value [1] read?
**A.** The value was “did not show any noticeable structures”.

**Q.** With RRILKRRIL as the substance, how does the isolated yield ([2]; on 19 μmol peptidyl resin) read?
**A.** The isolated yield was 38% yield.

**Q.** And the isolated mass ([2]; scale 19 μmol of peptidyl resin)?
**A.** The isolated mass was 23 mg.

**Q.** With rril(εK)RRIIL as the substance, how does the isolated yield ([2]; on 7 μmol peptidyl resin) read?
**A.** The isolated yield was 13% yield.

**Q.** What about the isolated mass ([2]; scale 7 μmol of peptidyl resin) of the same substance?
**A.** Its isolated mass is 9 mg.

For some of these results: Where a sequence shows no end group, the ends are not given. *1 amine or outer side, *2 acyl side, *3 side chain or, on linkers, in order; H or OH if unused. Where no end group is shown, it is not given here. [ ]: non-standard residue; d: D form. εLys = N[C@@H](CCCCN[*:1])C(=O)[*:2]
